Experimental data from article PMC7819943, “Rice protein-binding microarrays: a tool to detect cis-acting elements near promoter regions in rice”.
Some of the results follow.

Amino acid sequences for entries named in this document (tags omitted).
UniProt Q0JBA9, entry or part of it: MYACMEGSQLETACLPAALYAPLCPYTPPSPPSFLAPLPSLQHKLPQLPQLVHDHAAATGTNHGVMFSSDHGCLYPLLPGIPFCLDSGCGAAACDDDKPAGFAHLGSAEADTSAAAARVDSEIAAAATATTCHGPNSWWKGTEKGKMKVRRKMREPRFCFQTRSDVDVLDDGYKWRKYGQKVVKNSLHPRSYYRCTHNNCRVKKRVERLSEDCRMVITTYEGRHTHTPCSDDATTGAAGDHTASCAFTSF

target: OsWRKY34 (Oryza sativa, UniProt Q0JBA9 1-250); experiment: protein-binding microarray (RPBM); PBS, 2% BSA, 51.3 ng/ul salmon testes DNA, 50 uM zinc acetate, 200 nM TF, 25 C, 1 h; high values mean tight binding; settings: protein: recombinant; tags: N-terminal polyhistidine and DsRed monomer fusion (pET32a); label: CyDye5-dUTP incorporated in the synthesized complementary strand; 3' TTTTT single-stranded linker to array surface; dsDNA, one strand shown
Outline: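 Transcription factors were made in E. coli BL21-CodonPlus as N-terminal fusions to a polyhistidine tag and DsRed, then purified on Ni–NTA. After primer extension with Cy5-dUTP and blocking with 2% BSA, a custom Agilent array was exposed for 1 h at 25 °C to 200 nM protein in PBS, 2% BSA, salmon testes DNA and 50 µM zinc acetate. Washed arrays were scanned on an Axon 4000B, and the binding signal is per-feature fluorescence intensity in arbitrary units.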

Sequence | binding signal
CTTCAGCTGAGTCTGTTTCGAAGACTACTCTGGTTGCTGCCGGAGTCACCTAGTGCAG | 11000 fluorescence intensity (a.u.)
TTTTCTCTCTCATCACCATGATTCTCTTCTTATATATATACGGAGTCACCTAGTGCAG | 8580 fluorescence intensity (a.u.)
CACATCCCCATCCGTGCTCTCTCTTTGTTTCTTTCTAGATCGGAGTCACCTAGTGCAG | 9400 fluorescence intensity (a.u.)
TGTAAATTGTATTTCTATATGGACTCTGTTTTTTCTTTTTCGGAGTCACCTAGTGCAG | 10800 fluorescence intensity (a.u.)
CATTCCGTGTCTGTCTACTACGACTCCAAATTAAATTTCACGGAGTCACCTAGTGCAG | 8350 fluorescence intensity (a.u.)
ATCACCTTGCTCGATCGCCTCCGTTGTTTTGCACTAAATTCGGAGTCACCTAGTGCAG | 8620 fluorescence intensity (a.u.)
TGTGGGTGGCTATAAATAGGGCAGGGTGCGGTTGCCATTGCGGAGTCACCTAGTGCAG | 8740 fluorescence intensity (a.u.)
GTACAAAATAGTATACCTTTTCTTATCCCTTTTGAATTTCCGGAGTCACCTAGTGCAG | 8040 fluorescence intensity (a.u.)
GAACAAACCCTTTTACTATTTTGGCCGCCGGTTGTTGGGCCGGAGTCACCTAGTGCAG | 8470 fluorescence intensity (a.u.)
ACACTCACCTATAAATTGCATTCACCCGCTTCACACTTTCCGGAGTCACCTAGTGCAG | 11800 fluorescence intensity (a.u.)
ATCTGGTAACTCAAGTGCTCTCTTCCTGACTGCTGCAGCACGGAGTCACCTAGTGCAG | 9470 fluorescence intensity (a.u.)
GAGCTGGGGTGGTGTTTGTTTGTGGGTGTGTTTGTGTGCTCGGAGTCACCTAGTGCAG | 15900 fluorescence intensity (a.u.)
TGCGCAGGGGTGGAGGGGATCGTGAGCAATGCGGACAATTCGGAGTCACCTAGTGCAG | 12300 fluorescence intensity (a.u.)
CCAATGATATGTGCCGAAGTTGTATTTATCGAGAGATATTCGGAGTCACCTAGTGCAG | 9850 fluorescence intensity (a.u.)
GGTGGTGGGTGGTTACGACTGATGCGGCGCGGCGAGTGGTCGGAGTCACCTAGTGCAG | 8370 fluorescence intensity (a.u.)
GCTACATCGGTATATTCCGTGCGCTTGCGGATTTTATCTACGGAGTCACCTAGTGCAG | 9990 fluorescence intensity (a.u.)
CATTTTTCCCGGTCCAATTACACACGTGGGGTGTGTTTGCCGGAGTCACCTAGTGCAG | 8470 fluorescence intensity (a.u.)
ACCGCGTGAGTATTTTCCTCTTTTCTTTTCTTTTTTTTCTCGGAGTCACCTAGTGCAG | 9790 fluorescence intensity (a.u.)
AAAACGAGGCCCGAACGGCTGAACATGGTCAATTTTCCCTCGGAGTCACCTAGTGCAG | 8520 fluorescence intensity (a.u.)
AAACATACCTCTGCCCACATTCGTTGTACTAGAATATGTCCGGAGTCACCTAGTGCAG | 8960 fluorescence intensity (a.u.)
CAGTGGAGGGTTGGATCGGTGTGTAGGGGCTTAAGTGCAACGGAGTCACCTAGTGCAG | 9610 fluorescence intensity (a.u.)

Sequence | binding signal
AGGTCACCCACGCACCTCGCGCTTAATTTATTTGTTTCCACGGAGTCACCTAGTGCAG | 10200 fluorescence intensity (a.u.)
TACGTTTCAGTTGTGCTTGTTCGGACCTTTCGATTTCTTTCGGAGTCACCTAGTGCAG | 13900 fluorescence intensity (a.u.)
ATGATTTTTGGGTCATTTGGTTTGTTTTTGACTTTTGCAACGGAGTCACCTAGTGCAG | 12100 fluorescence intensity (a.u.)
AGGAAGTATATGTTTGTAGGTAACTATTATATGAATTGAACGGAGTCACCTAGTGCAG | 8230 fluorescence intensity (a.u.)
TCTACCTGTTTTCCACCGGATTTCATGAAAATTGTCATACCGGAGTCACCTAGTGCAG | 8210 fluorescence intensity (a.u.)
GCCGCCGCCTCCGACCTCGCCATGCCCCGCTCCGTCGTCGCGGAGTCACCTAGTGCAG | 9660 fluorescence intensity (a.u.)
ACGACACTACACCATGACACTGGATTACTAACACACATCTCGGAGTCACCTAGTGCAG | 9650 fluorescence intensity (a.u.)
CACCTCCGCATATCATCCTCCGCTTCGCTTCCGCTCGATCCGGAGTCACCTAGTGCAG | 9500 fluorescence intensity (a.u.)
TAACCCTAACTTATCCTCCTACTCTGCCCAAAATCTCATCCGGAGTCACCTAGTGCAG | 8200 fluorescence intensity (a.u.)
CTCTCGGGTTTCTTTTTTTTTTTTTTGCCGCGGATAGGATCGGAGTCACCTAGTGCAG | 12400 fluorescence intensity (a.u.)
AAAGCGCACTGCTCGTTCTTTTCAAGTTGGTACTCTTGATCGGAGTCACCTAGTGCAG | 9290 fluorescence intensity (a.u.)
GCATCTGCTCTAGTACCATGTATGCTATTTGGTTGTACCACGGAGTCACCTAGTGCAG | 8380 fluorescence intensity (a.u.)
GTCATCCTCCAGGTCCACGGCCACTAGCTACCATCTAGAACGGAGTCACCTAGTGCAG | 9390 fluorescence intensity (a.u.)
AGTTGACTTGACCGAGTGGACTAGGTGCATCATCTTCCTTCGGAGTCACCTAGTGCAG | 8400 fluorescence intensity (a.u.)
ACTCGTGCCGATTCCTTTCCCCTCCTATTGATGCAAATTACGGAGTCACCTAGTGCAG | 8120 fluorescence intensity (a.u.)
AAAGGGATATATGTGGAATGTTTGGCTTTCTTTTGCCATTCGGAGTCACCTAGTGCAG | 10500 fluorescence intensity (a.u.)
GCAAATGAGCCTATATTATGCCATCCTTTGGTATCCTTGTCGGAGTCACCTAGTGCAG | 9400 fluorescence intensity (a.u.)
GATATTTTTTTTCTATGGACCATCTATCTAGGAATCTTTTCGGAGTCACCTAGTGCAG | 8920 fluorescence intensity (a.u.)
CCTATAATTTTATTTTTAAGATCGGCTTTCACCCTTACACCGGAGTCACCTAGTGCAG | 8800 fluorescence intensity (a.u.)
ATTATCGTAAAATCATTTTTTTTCATCACCACGTGTCTTCCGGAGTCACCTAGTGCAG | 8580 fluorescence intensity (a.u.)
GCATCCCGCGCCGTCGCCTCACCGCTATCCCTCATCACCCCGGAGTCACCTAGTGCAG | 12900 fluorescence intensity (a.u.)

Quoted from the listing (five entries):
Sequence | binding signal
ACTCGTGCCGATTCCTTTCCCCTCCTATTGATGCAAATTACGGAGTCACCTAGTGCAG | 8120 fluorescence intensity (a.u.)
AAAGGGATATATGTGGAATGTTTGGCTTTCTTTTGCCATTCGGAGTCACCTAGTGCAG | 10500 fluorescence intensity (a.u.)
GCAAATGAGCCTATATTATGCCATCCTTTGGTATCCTTGTCGGAGTCACCTAGTGCAG | 9400 fluorescence intensity (a.u.)
GATATTTTTTTTCTATGGACCATCTATCTAGGAATCTTTTCGGAGTCACCTAGTGCAG | 8920 fluorescence intensity (a.u.)
CCTATAATTTTATTTTTAAGATCGGCTTTCACCCTTACACCGGAGTCACCTAGTGCAG | 8800 fluorescence intensity (a.u.)

More entries follow:

Sequence | binding signal
GCACACACACTATAGCATAGCACTACTCTCTTCTTCTTTACGGAGTCACCTAGTGCAG | 10900 fluorescence intensity (a.u.)
ATCCAACCCTATAACTTCTTATATTCTAGGACGGAGAGACCGGAGTCACCTAGTGCAG | 8080 fluorescence intensity (a.u.)
CCTGTTTTACTGCATGCTTTAGATATCTTTGCCTATGTAGCGGAGTCACCTAGTGCAG | 9780 fluorescence intensity (a.u.)
CTTCGACTTCCACTGGATCCTGCTCGACGCGCTCGACATGCGGAGTCACCTAGTGCAG | 9140 fluorescence intensity (a.u.)
TAGATGTGATAGGGTGTAAAATTTTTGTGTGTGAACTAAACGGAGTCACCTAGTGCAG | 8240 fluorescence intensity (a.u.)
TGTGGATGGCGTGGATAAGTTGACAGTTGAAAATACAAAACGGAGTCACCTAGTGCAG | 9130 fluorescence intensity (a.u.)
ACTTGGACTCTTTTTTTTTCTCCGATTAATGTGGAAATTTCGGAGTCACCTAGTGCAG | 8110 fluorescence intensity (a.u.)
ATGGGTAGGAGGGTTATTAATTGATGATGTGGTTTGGTTACGGAGTCACCTAGTGCAG | 9100 fluorescence intensity (a.u.)
AACCTCACACGTCTTCGTCCCTCCAGCCTGTCCCCGGTCCCGGAGTCACCTAGTGCAG | 10100 fluorescence intensity (a.u.)
TTCCTCGGTTTCATATTATAAGTCATTTAACCTTTTTCTACGGAGTCACCTAGTGCAG | 11300 fluorescence intensity (a.u.)
CATATACACACAACTTTTTCAGTCACATTGTCTTCAATTTCGGAGTCACCTAGTGCAG | 10700 fluorescence intensity (a.u.)
CGCCGGCTCCTCGTCCTCGTCACCACCACCACGCCAACATCGGAGTCACCTAGTGCAG | 8410 fluorescence intensity (a.u.)
CGGCTTTGACCAGTGCCGCGCCCTCTCCTCTCTGTCGCCTCGGAGTCACCTAGTGCAG | 8270 fluorescence intensity (a.u.)
ACAGTAGCAGGGGTAATTTTGATTTTCTTTCCTATCAAATCGGAGTCACCTAGTGCAG | 16000 fluorescence intensity (a.u.)
GTGTGTAGTGGTGTTTGTGCGCGGCCTCTAATATCATGTACGGAGTCACCTAGTGCAG | 11600 fluorescence intensity (a.u.)
GCCGCTTAACCACCTCCCTCCGTAACAAACTCCTCATTTCCGGAGTCACCTAGTGCAG | 9650 fluorescence intensity (a.u.)
CCATGACTTTTTAAGTGCCTACGCTTGTCGATTTCTGCACCGGAGTCACCTAGTGCAG | 10700 fluorescence intensity (a.u.)
AAGCGAGCTTACGTATTGACGAATTTACGCTTTCTGGTCACGGAGTCACCTAGTGCAG | 8160 fluorescence intensity (a.u.)
GCGGTGGCGTTTAATTTCCTTTTGTTTTAAATTTCTTTCACGGAGTCACCTAGTGCAG | 8560 fluorescence intensity (a.u.)
TTCTATCTTTCTTCATCGTATCGTTCTAATTTAACCAAACCGGAGTCACCTAGTGCAG | 9120 fluorescence intensity (a.u.)
CTCTCTCCTTCTCCTCACCTCGCCGCTCGCTGCTAAACCCCGGAGTCACCTAGTGCAG | 8360 fluorescence intensity (a.u.)

Sequence | binding signal
ATCAAACTTCCTGTATCTTTACTCCTTTAAATGTTCCTTGCGGAGTCACCTAGTGCAG | 9310 fluorescence intensity (a.u.)
TTTTAATCATATATGACCTTGCGATCATCTCATCAAACAGCGGAGTCACCTAGTGCAG | 8250 fluorescence intensity (a.u.)
TTATCTCTATCCGTCGTCGTCGCTCTTGTCGCCGTCGCGTCGGAGTCACCTAGTGCAG | 8670 fluorescence intensity (a.u.)
CTCGTGTTCATGTGTTAGGCTAGGTCGGGATGGCATTGTCCGGAGTCACCTAGTGCAG | 10900 fluorescence intensity (a.u.)
GAGCTCTCCGCCGGCTCTCCACCTTCAAACAGCAACAAATCGGAGTCACCTAGTGCAG | 8130 fluorescence intensity (a.u.)
TGCTTAGCCGTACATTGCCTGTCCAAACCCCATTTGACTCCGGAGTCACCTAGTGCAG | 10300 fluorescence intensity (a.u.)
AAATTGTCATTGTTTGCTGGCTGATTTTATCATCATTTTCCGGAGTCACCTAGTGCAG | 12700 fluorescence intensity (a.u.)
CACCCACGCGTGCACCGCTTGCACCCGCGCGTGCAGAACCCGGAGTCACCTAGTGCAG | 9330 fluorescence intensity (a.u.)
ACCAAATCATTCGTTGTTTTATTATAATTAGCTTTCTTTTCGGAGTCACCTAGTGCAG | 10800 fluorescence intensity (a.u.)
TTGTTCAGGTGTTTCTTTTCTCTGTTTCTTCAGTGCTTGACGGAGTCACCTAGTGCAG | 12500 fluorescence intensity (a.u.)
TCCTCTCTGTCTCCGCCGATCTGCTCTGCCGCGACGCGCCCGGAGTCACCTAGTGCAG | 8180 fluorescence intensity (a.u.)
AGTTCAGTAATAAAAATCACCTTTTACTATGTTGTTATATCGGAGTCACCTAGTGCAG | 8510 fluorescence intensity (a.u.)
ATCCCTCGAATTCATCGTCTTCCTCAGCTCACCAAAATCCCGGAGTCACCTAGTGCAG | 8180 fluorescence intensity (a.u.)
CTTTTTCTCCATCCGTCTCTATAAATACACGGACACACAACGGAGTCACCTAGTGCAG | 10000 fluorescence intensity (a.u.)
CGCCGTCGAGCTCCGCTTCGCTTCCTCGCGTCCTGGTCCACGGAGTCACCTAGTGCAG | 10000 fluorescence intensity (a.u.)
TGATGATTGGTTTCTTGGCCAATGGTTTGGTTGTTGTTTTCGGAGTCACCTAGTGCAG | 9440 fluorescence intensity (a.u.)
GATCATCGATACGTCGGCTCGTCCATCCGGCATTTAAAGTCGGAGTCACCTAGTGCAG | 8120 fluorescence intensity (a.u.)
GTCTCTCCCGCATCCGCTTCTCCGCTACCTCCCAATAAACCGGAGTCACCTAGTGCAG | 8090 fluorescence intensity (a.u.)
CCTTAATGTGGGCTGCACGCGAGCGTCTGTCCCCGTTCCGCGGAGTCACCTAGTGCAG | 9870 fluorescence intensity (a.u.)
TGTTATATCTCTATTTCTACTCTGTATAGCTAAATGCAACCGGAGTCACCTAGTGCAG | 8190 fluorescence intensity (a.u.)
TCACCGTTAACACCACTGTTGGCTGGCCGCACCTACCTCTCGGAGTCACCTAGTGCAG | 11300 fluorescence intensity (a.u.)
